One compound from patent US12637369B2, “Method for selectively removing perfluorinated compounds with electrooxidation” (SK hynix Inc., priority 2021, dated 2026) can be followed below.

This data set is described as follows: Evaluation of selective removal efficiency of perfluorinated compound from semiconductor wastewater.

With `O=S(=O)(O)C(F)(F)C(F)(F)C(F)(F)C(F)(F)F` [PFBS, Perfluorobutane sulfonic acid], the “removal rate as the BV increases” value (Comparative Example using only adsorption by activated carbon (FIGS. 7A, 7B)) is “decreased”. The removal rate entry reads like this: (Comparative Example: general activated carbon tank (adsorption only), same relative flow rate as long-term Example) “about 50%”; (Example device, long-term operation, about 1,000,000 L or more influent, relative flow rate about 2,400 times the GAC volume) at least 99%; (Example: adsorption electrooxidation device, semiconductor wastewater, GAC 500 L, 1000 L/hr, 7 to 12 V, 25 A, BV up to a test time point (FIG. 7B)) 100%.
